Measurements reported in PubChem BioAssay AID504774 (Drosophila RNAi Screening Center, 2011).
Screen: 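Fly genes whose loss alters survival after alkylation damage to DNA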 (primary screen). Cells: Drosophila Kc167 cells. Reagent: long dsRNA against Drosophila genes, about 0.25 µg dsRNA per well. Timing: about 6 days: 3 days knock-down, then 3 days with or without MMS. Challenge: methyl methanesulphonate 0.004% (w/v) for 3 days after knock-down. Measurement: 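Viability in wells given MMS, read as ATP luminescence, normalised by quantiles plate by plate and averaged across replicates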. Scale: mean viability with MMS and viability with MMS: higher = more surviving cells after MMS.
The deposit covers about 23,000 reagents; below is an unselected part of those with a known target gene and a result. 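Values are quantile-normalised luminescence on an arbitrary scale; higher means more cells surviving MMS.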 Names joined by + are all predicted targets of the reagent.

gene	DRSC id	mean viability with MMS	viability with MMS, replicate 1	viability with MMS, replicate 2
Prp38 (pre-mRNA processing factor 38)	DRSC07060	3.27e6	3.69e6	3.75e6
CG4607	DRSC18375	3.62e6	4.24e6	3.98e6
bor (belphegor)	DRSC16915	3.43e6	3.92e6	3.84e6
Lnk	DRSC16729	3.60e6	4.12e6	4.03e6
Vha16-4 + CG15614	DRSC07321	3.54e6	3.99e6	4.04e6
Jon74E (Jonah 74E)	DRSC10617	3.63e6	4.09e6	4.12e6
CG32237	DRSC08312	3.78e6	4.23e6	4.32e6
CG32237	DRSC08315	3.83e6	4.36e6	4.28e6
Or7a (Odorant receptor 7a)	DRSC18691	3.57e6	4.15e6	3.96e6
Camp (Cathelicidin-like antimicrobial protein)	DRSC07004	3.73e6	3.99e6	4.42e6
SP1029	DRSC16848	3.72e6	4.20e6	4.20e6
CG31638	DRSC02269	3.31e6	3.79e6	3.63e6
CG31638	DRSC03259	3.41e6	3.88e6	3.82e6
mRpL10 (mitochondrial ribosomal protein L10)	DRSC00312	3.19e6	3.88e6	3.16e6
CG32647	DRSC19690	3.53e6	3.99e6	3.99e6
CG32647	DRSC19878	3.48e6	3.86e6	4.01e6
CG10104	DRSC05964	3.54e6	3.95e6	4.12e6
Gclc (Glutamate-cysteine ligase catalytic subunit)	DRSC18666	2.68e6	3.32e6	3.36e6
CG11562	DRSC00316	3.50e6	3.97e6	3.96e6
CG2663	DRSC12314	3.58e6	3.94e6	4.18e6
CG30375	DRSC06834	3.67e6	4.07e6	4.16e6
Dic1	DRSC14125	3.38e6	3.90e6	3.74e6

Continued; the last 4 above are carried over.
gene	DRSC id	mean viability with MMS	viability with MMS, replicate 1	viability with MMS, replicate 2
CG11562	DRSC00316	3.50e6	3.97e6	3.96e6
CG2663	DRSC12314	3.58e6	3.94e6	4.18e6
CG30375	DRSC06834	3.67e6	4.07e6	4.16e6
Dic1	DRSC14125	3.38e6	3.90e6	3.74e6
CG5608	DRSC15841	3.61e6	4.04e6	4.19e6
CG9289	DRSC03187	3.33e6	3.70e6	3.80e6
CDase (Ceramidase)	DRSC14932	3.55e6	4.10e6	3.95e6
Cpr66D (Cuticular protein 66D)	DRSC10640	3.11e6	3.52e6	3.54e6
Cpr66D (Cuticular protein 66D)	DRSC10646	3.22e6	3.56e6	3.64e6
Cpr66D (Cuticular protein 66D)	DRSC23178	3.67e6	4.16e6	4.17e6
Alg1 (ALG1, chitobiosyldiphosphodolichol beta-mannosyltransferase)	DRSC15297	3.58e6	4.03e6	4.09e6
CG6870	DRSC02998	3.52e6	4.10e6	3.89e6
Hel25E (Helicase at 25E)	DRSC03342	2.94e6	3.04e6	3.45e6
CG33465	DRSC05587	3.50e6	4.03e6	3.94e6
CG13609	DRSC14612	3.47e6	3.95e6	3.90e6
CG13609	DRSC22843	3.42e6	3.98e6	3.86e6
Mst89B	DRSC16748	3.51e6	4.06e6	3.90e6
Oatp58Da (Organic anion transporting polypeptide 58Da)	DRSC04365	3.38e6	3.79e6	3.83e6
Pep (Protein on ecdysone puffs)	DRSC11252	3.48e6	3.96e6	3.92e6
CG15927	DRSC19742	3.46e6	3.84e6	4.00e6
CG7142	DRSC16204	3.54e6	3.88e6	4.15e6
Mst85C	DRSC16746	3.40e6	3.83e6	3.91e6
CG12702	DRSC19487	3.52e6	4.05e6	3.94e6
CG5674	DRSC02874	2.85e6	3.54e6	3.54e6
CG5674	DRSC23176	3.78e6	4.34e6	4.22e6
mtm (myotubularin)	DRSC03576	3.45e6	3.93e6	3.80e6
Sod3 (Superoxide dismutase 3)	DRSC07324	3.74e6	4.26e6	4.23e6
CG17404	DRSC15234	3.63e6	3.97e6	4.06e6
